Laboratory results reported in PubChem BioAssay AID2685 (National Center for Advancing Translational Sciences (NCATS), 2010).
Among all 320,000 compounds or so, about 2,100 (0.66%) were called active. The shares of active, inactive and inconclusive entries below differ from those in the screen. Calls come from the whole dose curve; as a rule, active = well fitted inhibition curve with a large enough effect in the signal ratio, with a control signal flat (not every such curve was filed as active); inconclusive = small, poorly fitted or top-dose-only effect, or effect the other way, or a change in a side signal; inactive = flat fitted curve, though single readings scatter; the % refers to the signal ratio. Potencies of inconclusive entries are doubtful fits and often do not repeat.
% is set by controls: 0 for no effect and ±100 for the full control effect; potency is the fitted concentration of half-maximal effect.

Test: qHTS Assay for Lipid Storage Modulators in Drosophila S3 Cells
Conditions: BODIPY lipid droplet fluorescence, 18-24 h, cells fed with added oleic acid; lipid storage change, negative = inhibition: at 46.1 µM (top of the series) unless noted
Method in brief: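 Drosophila S3 cells got compounds at several concentrations plus oleic acid (400 uM solution). Laser-scanning cytometry with 488 nm excitation read lipid droplets at 500-530 nm and cells at 575-640 nm. Percent activity was relative to 20 uM Triacsin C.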
In the case of `CCCn1c(SCC(=O)NC2CCC(C)CC2)n[nH]c1=O` (stereo unspecified), the lipid storage change, negative = inhibition is reported as inconclusive: 52.1%.
For `O=C(O)Cc1sc(Nc2cccc3ccccc23)nc1-c1ccccc1`, the Potency was active: 0.092 µM.
For `CC1CCC(NC(=O)c2cc(S(=O)(=O)N3CCCCC3)c[nH]2)CC1` (stereo unspecified), the lipid storage change, negative = inhibition was inconclusive: -17%.
In the case of `O=C(NC1CCCCC1)c1n[nH]c2c1CCCCC2`, the Potency is reported as inconclusive: 25.9 µM [falling, single point].
In the case of `COC(=O)CCC(=O)Nc1ccc(Br)cc1`, the lipid storage change, negative = inhibition is reported as “inactive”.
In the case of `CCOc1ccc(NC(=O)c2ccc(CNc3c(N4CCCC4)c(=O)c3=O)cc2)cc1`, the Potency is reported as inconclusive: 0.116 µM [falling, full curve, poor fit].
For `Cc1cc(C(F)(F)F)c(C#N)c(SCC(=O)Nc2nc3ccccc3s2)n1`, the Potency was inconclusive: 18.4 µM [falling, single point].
With `CN(C)CCNC(=O)c1c(NC(=O)c2ccccc2)sc2c1CCCC2` the Potency was inconclusive: 29.1 µM [falling, single point].
In the case of `COc1ccc(NC(=O)c2ccc3ccccc3c2)cc1`, the Potency is reported as inconclusive: 4.11 µM [activator, partial curve, poor fit].
For `C=C(C)CSc1nnc([C@H](CCSC)NC(=O)OC(C)(C)C)o1`, the Potency was inconclusive: 14.6 µM [rising, partial curve, poor fit].
With `COc1cc(C)c(CNc2ccc(OC)c(OC)c2)cc1C` the lipid storage change, negative = inhibition was inconclusive: 13.2%.
In the case of `COc1ccc(-c2ncc3ccccn23)cc1`, the lipid storage change, negative = inhibition is reported as inconclusive: 37.6%.
In the case of `COc1ccccc1Nc1nc(-c2sc(NC(=O)c3ccco3)nc2C)cs1`, the lipid storage change, negative = inhibition is reported as inconclusive: -2.44%.
With `COc1cccc(OCCCn2cc(/C=C3/C(=N)N4C=C(C)SC4=NC3=O)c3ccccc32)c1` the Potency was inconclusive: 20.6 µM [falling, partial curve, poor fit].
In the case of `COc1ccccc1N1CCN(C(=O)CCN2C(=O)c3cccc4cccc(c34)C2=O)CC1`, the lipid storage change, negative = inhibition is reported as inconclusive: 31.4%.
In the case of `COC(=O)c1nn(-c2ccc(Cl)cc2)c(=O)cc1Sc1ccccn1`, the lipid storage change, negative = inhibition is reported as inconclusive: -18.6%.
With `COCCCN(C(=O)c1cc(-c2ccco2)nc2ccccc12)c1c(N)n(Cc2ccccc2)c(=O)[nH]c1=O` the lipid storage change, negative = inhibition was inconclusive: 47.3%.
For `O=c1c(-c2ccc(Br)cc2)coc2c(CN3CCCCC3)c(O)ccc12`, the lipid storage change, negative = inhibition was inconclusive: 213%.
In the case of `Cc1cc(C)n(-c2nc(NCCCO)c3c4c(sc3n2)CCCC4)n1`, the Potency is reported as inconclusive: 0.58 µM [activator, single point].
In the case of `Cc1cc(=O)c2c(C)ccc(C)c2[nH]1`, the lipid storage change, negative = inhibition is reported as inconclusive: 38.8%.
With `Cc1oc(-c2cccc(Cl)c2)nc1CN1CCC(C(=O)NCCCN2CC(C)CC(C)C2)CC1` (stereo unspecified) the Potency was inconclusive: 29.1 µM [activator, partial curve].
With `Cc1ccccc1C(=O)c1cccn1CC(=O)O` the lipid storage change, negative = inhibition was inconclusive: -44.3% [at 0.0737 µM].
In the case of `O=C(NCc1ccc(F)cc1)Nc1cccc(Cl)c1`, the lipid storage change, negative = inhibition is reported as inconclusive: 1.71%.
With `CC(C)NS(=O)(=O)c1ccc(CCC(=O)NCc2ccccn2)cc1` the lipid storage change, negative = inhibition was “inactive”.
In the case of `COc1cc(/C=C(\C#N)c2nc3ccc(C)cc3[nH]2)c([N+](=O)[O-])cc1OC`, the lipid storage change, negative = inhibition is reported as inconclusive: 50.4%.
With `CC(=O)Nc1ccc(S(=O)(=O)Nc2ccc3c(c2)CCC3)cc1` the lipid storage change, negative = inhibition was inconclusive: -57.5%.
For `CCCCC(=O)NC1(C(F)(F)F)NC(=O)N(Cc2ccccc2)C1=O` (stereo unspecified), the Potency was inconclusive: 0.0103 µM [activator, full curve, poor fit].
With `CC(=O)CC(=O)NC(=NC1CCCCC1)Nc1nc(C)cc(C)n1` the Potency was inconclusive: 0.82 µM [activator, partial curve].
For `Cc1ccc(C(=O)Nc2ncc([N+](=O)[O-])s2)cc1`, the Potency was active: 23.1 µM.
With `COc1ccc(C)cc1NC(=O)c1ccc2c(O)c(S(=O)(=O)c3ccccc3)c(=O)[nH]c2c1` the lipid storage change, negative = inhibition was inconclusive: 79.9%.
With `CSCCC(NS(=O)(=O)c1ccccc1F)C(=O)NCc1cccs1` (stereo unspecified) the lipid storage change, negative = inhibition was inconclusive: 50.4%.
With `CNC(=O)c1ccc(NC(=O)Cc2ccc(S(=O)(=O)N3CCOCC3)s2)cc1` the lipid storage change, negative = inhibition was “inactive”.
With `CN(C(=O)CSC1=NCCS1)c1ccccc1` the Potency was inconclusive: 0.259 µM [falling, full curve].
With `CCC(C)NC(=O)CCCCCn1c(=O)[nH]c2cc(OC)c(OC)cc2c1=O` (stereo unspecified) the lipid storage change, negative = inhibition was inconclusive: 34.5%.
With `COc1cccc(OCC(Cn2c(C)nc3ccccc32)OC(C)=O)c1` (stereo unspecified) the lipid storage change, negative = inhibition was inconclusive: -84.1%.
For `CCn1c(C)cc(C(=O)CSc2nnnn2C2CCCC2)c1C`, the lipid storage change, negative = inhibition was inconclusive: -15.5%.
In the case of `COc1cccc(C(=O)N2CCN(C(=O)C3COc4ccccc4O3)CC2)c1` (stereo unspecified), the lipid storage change, negative = inhibition is reported as “inactive”.
For `C=CCc1cccc(OC)c1OCCOCCn1ccnc1`, the lipid storage change, negative = inhibition was inconclusive: 69.5%.
In the case of `COc1cc(/C=N/NC(=O)CNC(=O)/C=C/c2ccco2)cc(OC)c1OC`, the Potency is reported as inconclusive: 0.206 µM [falling, full curve, poor fit].
For `COc1ccc(C2=CC(=O)OC(C)(c3ccccc3)O2)cc1` (stereo unspecified), the Potency was inconclusive: 0.0065 µM [activator, full curve, poor fit].
In the case of `Cc1cc(S(=O)(=O)Nc2ccc3c(c2)COC3=O)ccc1F`, the Potency is reported as inconclusive: 4.11 µM [falling, full curve, poor fit].
With `O=C(CN1C(=O)/C(=C/c2ccccc2)SC1=S)Nc1ncc(Cc2ccccc2)s1` the lipid storage change, negative = inhibition was inconclusive: 32.3%.
In the case of `COc1ccc(C(CNC(=O)c2c(C)nn(Cc3ccccc3)c2Cl)N2CCOCC2)cc1` (stereo unspecified), the Potency is reported as inconclusive: 1.03 µM [activator, full curve].
For `O=C(c1cnccn1)N1CCc2ccccc21`, the Potency was inconclusive: 18.4 µM [activator, partial curve].
With `Cc1cccc(C)c1NC(=O)N1CC=CCC1` the lipid storage change, negative = inhibition was inconclusive: 5.31%.
With `CN1CCN(c2nc(-c3ccc(Cl)c(Cl)c3)nc3ccccc23)CC1` the Potency was inconclusive: 29.1 µM [falling, single point].
With `CCCc1c(C)nn(C(=O)/C(C#N)=N/Nc2ccccc2[N+](=O)[O-])c1C` the lipid storage change, negative = inhibition was inconclusive: -6.32%.
For `O=C(O)CCn1cc(-c2ccc(Cl)cc2)nc1-c1ccc(Cl)nc1`, the lipid storage change, negative = inhibition was inconclusive: 8.64%.
For `COc1cc(N/C(=N/S(=O)(=O)c2ccccc2)c2ccccc2)ncn1`, the lipid storage change, negative = inhibition was inconclusive: 4.72%.
With `COc1ccc(C(=O)NNC(=O)Cc2ccc([N+](=O)[O-])cc2)cc1` the lipid storage change, negative = inhibition was inconclusive: 25.3%.
With `COc1ccc(S(=O)(=O)N(C)C)cc1NC(=O)CCNC(=O)c1ccco1` the lipid storage change, negative = inhibition was inconclusive: 161%.
In the case of `C=CCN1C(=O)c2ccc(C(=O)N(CC(C)C)c3c(N)n(CCCC)c(=O)[nH]c3=O)cc2C1=O`, the lipid storage change, negative = inhibition is reported as “inconclusive”.
With `O=C(Cn1c(=O)oc2ccccc21)N1CCOCC1` the lipid storage change, negative = inhibition was inconclusive: -43%.
For `CN1CCN(C(c2ccc(C(F)(F)F)cc2)c2cc(Cl)c3cccnc3c2O)CC1` (stereo unspecified), the Potency was inconclusive: 18.4 µM [falling, single point].
In the case of `CCCC1(C(=O)OCC)NC(c2ccc(O)cc2)C2C(=O)N(c3cccc(C(C)=O)c3)C(=O)C21` (stereo unspecified), the lipid storage change, negative = inhibition is reported as inconclusive: 76.3%.
In the case of `CCOc1ccccc1NC(=O)c1ccc2c(c1)C(=O)N(CC1CCCO1)C2=O` (stereo unspecified), the Potency is reported as inconclusive: 29.1 µM [falling, single point].
For `CCOc1ccccc1N(C(=O)c1snc(C(N)=O)c1N)C(C(=O)NC1CCCC1)c1cccs1` (stereo unspecified), the Potency was inconclusive: 29.1 µM [falling, single point].
In the case of `COc1ccccc1C(=O)NCC(=O)OC(C)C(=O)NC1CCCCC1C` (stereo unspecified), the Potency is reported as inconclusive: 6.51 µM [falling, full curve, poor fit].
With `COC(=O)c1cccc(NC(=O)CSc2nncn2-c2ccccn2)c1` the Potency was inconclusive: 29.1 µM [falling, single point].
With `O=C(COC(=O)c1ccco1)Nc1ccc(N2CCOCC2)cc1` the lipid storage change, negative = inhibition was “inconclusive”.
For `CN(C)c1ccc(N=C/C=C2\N(C)c3ccccc3C2(C)C)cc1`, the lipid storage change, negative = inhibition was inconclusive: -37.9%.
With `CN(C)CCCOC(=O)c1ccc(Cl)cc1Cl` the lipid storage change, negative = inhibition was inconclusive: -18.1%.
With `O=C(OCCN1CCCC1)C1(c2ccccc2)CCCC1` the lipid storage change, negative = inhibition was inconclusive: -0.306%.
For `CCOC(=O)[C@H]1[C@H]2COc3ccc(Cl)cc3[C@@H]2N2C(=O)c3cc(C)ccc3NC(=O)[C@@]12C`, the Potency was active: 1.64 µM.
In the case of `COc1cc(C(C(=O)NCc2ccccc2)N(C(=O)c2snc(C(N)=O)c2N)C2CCCC2)cc(OC)c1OC` (stereo unspecified), the lipid storage change, negative = inhibition is reported as inconclusive: -3.8%.
With `S=C(Nc1ccc(Cl)c(Cl)c1)NC1CCCCC1` the lipid storage change, negative = inhibition was inconclusive: -85.5%.
For `Cc1ccccc1NS(=O)(=O)c1ccc(OCC(=O)N2CCCCC2)cc1`, the Potency was inconclusive: 20.6 µM [rising, partial curve, poor fit].
For `COc1ccc(CNC(=O)N2CCN(c3cccc(Cl)c3)CC2)cc1OC`, the Potency was inconclusive: 29.1 µM [activator, partial curve, poor fit].
For `COc1cccc(NC(=O)Nc2nnc(Cc3ccccc3F)s2)c1`, the lipid storage change, negative = inhibition was inconclusive: -18.5%.
With `COC(=O)c1sccc1NC(=S)N1CCN(c2ccccc2)CC1` the Potency was inconclusive: 8.2 µM [activator, partial curve, poor fit].
With `Cc1c(Cl)c(-c2n[nH]c(=S)n2CC(C)C)nn1C` the lipid storage change, negative = inhibition was inconclusive: 25.1%.
In the case of `O=C(COc1ccccc1F)NCC(c1ccc(F)cc1)N1CCOCC1` (stereo unspecified), the lipid storage change, negative = inhibition is reported as inconclusive: 0.764%.
In the case of `CCOc1ccccc1NS(=O)(=O)c1ccc(Br)s1`, the lipid storage change, negative = inhibition is reported as inconclusive: 12.7%.
With `CC(=O)c1cccc(NC(=O)C(C)OC(=O)/C=C/c2cccs2)c1` (stereo unspecified) the lipid storage change, negative = inhibition was “inconclusive”.
For `CNC(=O)COC(=O)c1ccc2c(c1)S(=O)(=O)c1ccccc1C2=O`, the lipid storage change, negative = inhibition was inconclusive: 7.05%.
In the case of `COc1ccc(Cl)cc1NC(=O)CN(C)C(=O)c1sccc1-c1ccccc1`, the Potency is reported as inconclusive: 11.6 µM [falling, partial curve].
